# Assay results from PubChem BioAssay (NCATS).
# Inconclusive means that the source gave no clear call. Such entries were picked first, then a sample of the others. Where the call is inconclusive, the potency comes from a doubtful curve fit. Calls of active or inactive are those of the source. Calls follow the shape of the dose curve; as a rule, active = well fitted cell-killing curve with a large enough effect; inconclusive = small, poorly fitted or top-dose-only effect, or effect the other way; inactive = no such curve, though single readings can be large or run the other way.
# How the values were obtained:
# [1] = Quantitative High-Throughput drug screen in 47 multiple myeloma cell lines against the NCATS MIPE library collection: FR4_PLB cell viability assay (AID 1918924; also: nearly all actives have a fitted effect of over 35% in size); conditions: FR4_PLB myeloma cells viability, CellTiter-Glo ATP, 48 h; viability (% of DMSO control): at 45.8 µM (top of the series)
# In short: (§1)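 Approved and investigational drugs from MIPE 4.0 were added by pin tool to 500 cells per well. After 48 hours at 37C, ATP-based CellTiter-Glo luminescence indicated remaining viability.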
# [2] = Quantitative High-Throughput drug screen in 47 multiple myeloma cell lines against the NCATS MIPE library collection: EJM_DSMZ cell viability assay (AID 1918926; also: nearly all actives have a fitted effect of over 30% in size); conditions: EJM myeloma cell viability, CellTiter-Glo ATP, 48 h; viability, % of control: at 45.8 µM (top of the series)
# In short: (§2)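 Primary qHTS used for cherry-picking: cells at 500/well, library compounds for 48 h (37C, 5% CO2), luminescent ATP assay.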
# [3] = Quantitative High-Throughput drug screen in 47 multiple myeloma cell lines against the NCATS MIPE library collection: AMO1_DSMZ cell viability assay (AID 1918927; also: nearly all actives have a fitted effect of over 30% in size); conditions: AMO1 myeloma cells viability, CellTiter-Glo ATP luminescence, 48 h; viability, % of DMSO: at 45.8 µM (top of the series)
# In short: as §2
# [4] = Quantitative High-Throughput drug screen in 47 multiple myeloma cell lines against the NCATS MIPE library collection: ARD_JJKsccE7 cell viability assay (AID 1918929); conditions: ARD myeloma cell line viability, CellTiter-Glo, 48 h; viability: at 45.8 µM (top of the series)
# In short: as §2
# [5] = Quantitative High-Throughput drug screen in 47 multiple myeloma cell lines against the NCATS MIPE library collection: Karpas417_ECACC cell viability assay (AID 1918961); conditions: Karpas417 myeloma viability, CellTiter-Glo ATP luminescence, 48 h; viability (% of DMSO): at 45.8 µM (top of the series)
# In short: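 Inhibition of cell viability is measured here. Each line was plated at 500 cells per well, treated with MIPE 4.0 drugs, kept 48 hours at 37C, then assayed for ATP content by CellTiter-Glo luminescence.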
# [6] = Quantitative High-Throughput drug screen in 47 multiple myeloma cell lines against the NCATS MIPE library collection: ARP1_JJKsccF8 cell viability assay (AID 1918928; also: nearly all actives have a fitted effect of over 40% in size); conditions: ARP1 myeloma cells viability, CellTiter-Glo ATP, 48 h; viability: at 45.8 µM (top of the series)
# In short: (§3)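 CellTiter-Glo luminescence after 48 h exposure gives viability, scaled between DMSO-only (100%) and media-only (0%) controls. Library compounds are pinned onto 500 myeloma cells per well, incubated at 37C with 5% CO2.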
# [7] = Quantitative High-Throughput drug screen in 47 multiple myeloma cell lines against the NCATS MIPE library collection: KMM1_JCRB cell viability assay (AID 1918960); conditions: KMM1 myeloma viability, CellTiter-Glo ATP luminescence, 48 h; viability (% of DMSO): at 45.8 µM (top of the series); also: nearly all actives have a fitted effect of over 30% in size;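 as to viability (% of DMSO): 100% = DMSO-treated cells and 0% = medium-only wells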
# In short: as §3
# [8] = Quantitative High-Throughput drug screen in 47 multiple myeloma cell lines against the NCATS MIPE library collection: Delta47_JCRB cell viability assay (AID 1918925; also: nearly all actives have a fitted effect of over 45% in size); conditions: Delta47 myeloma viability, CellTiter-Glo ATP, 48 h; viability (% of DMSO): at 45.8 µM (top of the series)
# In short: as §2
# [9] = Quantitative High-Throughput drug screen in 47 multiple myeloma cell lines against the NCATS MIPE library collection: Karpas620_DSMZ cell viability assay (AID 1918959); conditions: Karpas620 myeloma viability, CellTiter-Glo ATP luminescence, 48 h; viability (% of DMSO): at 45.8 µM (top of the series); also: nearly all actives have a fitted effect of over 30% in size
# In short: as §1
# Potency is read from the fitted curve at half-maximal effect.
compound,measurement,setting,value
COc1cc(OC)c(NC(=O)Nc2cc(C)on2)cc1Cl,Potency,[1],inactive
same,Potency,[2],inconclusive: 0.001 µM
same,Potency,[3],inactive
same,Potency,[4],"inconclusive: 26.4 µM [cytotoxic, single point]"
same,Potency,[5],"inconclusive: 16.6 µM [cytotoxic, partial curve, poor fit]"
CC(=O)NC(CS)C(=O)O (centres undefined),Potency,[1],"inconclusive: 37.2 µM [cytotoxic, single point]"
same,Potency,[2],inactive
same,Potency,[3],"inconclusive: 0.0093 µM [rising, full curve]"
same,Potency,[6],"inconclusive: 37.2 µM [cytotoxic, single point]"
same,Potency,[5],"inconclusive: 1.32 µM [rising, full curve, poor fit]"
CN1CCN2c3ccccc3Cc3ccccc3C2C1 (centres undefined),Potency,[1],"inconclusive: 26.4 µM [cytotoxic, single point]"
same,Potency,[2],"inconclusive: 29.6 µM [cytotoxic, single point]"
same,Potency,[3],"inconclusive: 18.7 µM [cytotoxic, partial curve]"
same,Potency,[6],"inconclusive: 29.6 µM [cytotoxic, single point]"
same,Potency,[4],"inconclusive: 29.6 µM [cytotoxic, partial curve, poor fit]"
same,Potency,[7],"inconclusive: 16.6 µM [cytotoxic, partial curve]"
same,Potency,[5],"inconclusive: 0.0372 µM [cytotoxic, full curve, poor fit]"
NC(N)=Nc1nc(CSCCC(N)=NS(N)(=O)=O)cs1,Potency,[1],inactive
same,Potency,[2],active: 23.5 µM
same,Potency,[3],"inconclusive: 13.2 µM [cytotoxic, partial curve]"
same,Potency,[6],inactive
same,Potency,[4],inactive
same,Potency,[7],inactive
same,Potency,[5],"inconclusive: 3.72 µM [cytotoxic, full curve, poor fit]"
C=CC1=C(C(=O)O)N2C(=O)[C@@H](NC(=O)C(=NO)c3csc(N)n3)[C@H]2SC1,Potency,[1],inactive
same,Potency,[2],inactive
same,Potency,[3],"inconclusive: 20.9 µM [cytotoxic, single point]"
same,Potency,[4],inconclusive: 0.001 µM [cytotoxic]
same,Potency,[7],inactive
CCCS(=O)(=O)Nc1ccc(F)c(C(=O)c2c[nH]c3ncc(-c4ccc(Cl)cc4)cc23)c1F,Potency,[1],"inconclusive: 33.2 µM [cytotoxic, single point]"
same,Potency,[2],"inconclusive: 16.6 µM [cytotoxic, partial curve]"
same,Potency,[3],"inconclusive: 0.209 µM [cytotoxic, full curve, poor fit]"
same,Potency,[6],"inconclusive: 37.2 µM [cytotoxic, single point]"
same,Potency,[4],"inconclusive: 23.5 µM [cytotoxic, partial curve, poor fit]"
same,Potency,[5],"inconclusive: 2.09 µM [cytotoxic, full curve, poor fit]"
Clc1ccc2ncc(-c3cccc(NC4CNC4)n3)n2c1,Potency,[1],"inconclusive: 20.9 µM [cytotoxic, partial curve]"
same,Potency,[8],"inconclusive: 13.2 µM [cytotoxic, partial curve, poor fit]"
same,Potency,[7],active: 2.35 µM
same,Potency,[5],inactive
CCCOc1ccc(C(=O)OCCN(CC)CC)cc1N,Potency,[1],inactive
same,Potency,[8],"inconclusive: 0.003 µM [cytotoxic, full curve, poor fit]"
same,Potency,[7],inactive
COc1cc2c(c(OC)c1OC)-c1ccc(OC)c(=O)cc1[C@@H](NC(C)=O)CC2,Potency,[1],inactive
same,Potency,[5],active: 0.0033 µM
CN(C)C(=O)COC(=O)Cc1ccc(OC(=O)c2ccc(N=C(N)N)cc2)cc1,Potency,[8],"inconclusive: 4.18 µM [cytotoxic, partial curve, poor fit]"
same,Potency,[2],"inconclusive: 23.5 µM [cytotoxic, single point]"
same,Potency,[3],"inconclusive: 9.35 µM [cytotoxic, single point]"
same,Potency,[6],inactive
same,Potency,[4],"inconclusive: 8.33 µM [cytotoxic, single point]"
same,Potency,[7],"inconclusive: 11.8 µM [cytotoxic, single point]"
same,Potency,[5],"inconclusive: 4.18 µM [cytotoxic, partial curve, poor fit]"
C1=CCOCc2cc(ccc2OCCN2CCCC2)Nc2nccc(n2)-c2cccc(c2)OCC1,Potency,[1],active: 3.32 µM
same,Potency,[9],active: 2.09 µM
CC(=O)c1c(C)c2cnc(Nc3ccc(N4CCNCC4)cn3)nc2n(C2CCCC2)c1=O,Potency,[1],active: 18.7 µM
same,Potency,[6],active: 14.8 µM
same,Potency,[4],active: 14.8 µM
same,Potency,[5],active: 16.6 µM
N#CC1(c2cccc(C(=O)Nc3cc(Oc4ccc5nc(NC(=O)C6CC6)sc5n4)ccc3F)c2Cl)CC1,Potency,[1],active: 10.5 µM
same,Potency,[3],"inconclusive: 5.26 µM [cytotoxic, full curve]"
same,Potency,[4],active: 0.59 µM
same,Potency,[7],"inconclusive: 2.35 µM [cytotoxic, partial curve]"
same,Potency,[5],active: 0.187 µM
COc1cc(Nc2ncc3c(n2)-c2ccc(Cl)cc2C(c2c(F)cccc2OC)=NC3)ccc1C(=O)O,Potency,[8],"inconclusive: 7.43 µM [cytotoxic, partial curve]"
same,Potency,[2],inactive
same,Potency,[3],"inconclusive: 37.2 µM [cytotoxic, single point]"
same,Potency,[6],"inconclusive: 0.059 µM [cytotoxic, full curve, poor fit]"
same,Potency,[4],"inconclusive: 0.469 µM [rising, full curve, poor fit]"
same,viability (% of DMSO),[9],inconclusive: 55.5% [cytotoxic]
same,Potency,[7],"inconclusive: 37.2 µM [cytotoxic, single point]"
same,Potency,[5],"inconclusive: 37.2 µM [cytotoxic, partial curve, poor fit]"
CCN(CC)Cc1ccc2cc(COC(=O)Nc3ccc(C(=O)NO)cc3)ccc2c1,Potency,[1],active: 0.372 µM
same,Potency,[5],active: 0.526 µM
CC=C(C(=CC)c1ccc(O)cc1)c1ccc(O)cc1,Potency,[1],active: 20.9 µM
same,Potency,[6],"inconclusive: 18.7 µM [cytotoxic, partial curve]"
same,Potency,[4],active: 23.5 µM
same,Potency,[5],"inconclusive: 8.33 µM [cytotoxic, full curve]"
NCC(=O)Nc1ccc(-n2nc(C(F)(F)F)cc2-c2ccc3c(ccc4ccccc43)c2)cc1,Potency,[1],"inconclusive: 37.2 µM [cytotoxic, single point]"
same,Potency,[4],active: 0.148 µM
same,Potency,[9],inactive
same,Potency,[5],"inconclusive: 29.6 µM [rising, partial curve, poor fit]"
CC(C)(C)OC(=O)Nc1ccc(-c2cc(C(=O)NCCCCCCC(=O)NO)no2)cc1,Potency,[1],active: 1.32 µM
same,Potency,[4],active: 0.935 µM
same,Potency,[7],"inconclusive: 0.833 µM [cytotoxic, full curve]"
same,Potency,[5],"inconclusive: 0.662 µM [cytotoxic, full curve, poor fit]"
CC(=O)NC[C@H]1CN(c2ccc(N3CCOCC3)c(F)c2)C(=O)O1,Potency,[8],"inconclusive: 0.0047 µM [rising, full curve, poor fit]"
same,Potency,[2],inactive
same,Potency,[3],inactive
same,Potency,[6],active: 18.7 µM
same,Potency,[4],inactive
same,Potency,[7],inactive
same,Potency,[5],"inconclusive: 11.8 µM [rising, partial curve, poor fit]"
COC(=O)C1=C(C)NC(C)=C(C(=O)OC(C)C)C1c1cccc2nonc12 (centres undefined),Potency,[1],"inconclusive: 0.0074 µM [cytotoxic, full curve, poor fit]"
same,Potency,[7],inactive
same,Potency,[5],inactive
Cn1cc(-c2[nH]c3cc(NC(=O)[C@H](N)C4CCCCC4)cc4c3c2C=NNC4=O)cn1,Potency,[1],active: 0.296 µM
same,Potency,[6],active: 7.43 µM
same,Potency,[9],"inconclusive: 13.2 µM [cytotoxic, partial curve]"
CC[C@H](C)C(=O)O[C@H]1C[C@H](O)C=C2C=C[C@H](C)[C@H](CC[C@@H](O)C[C@@H](O)CC(=O)O)[C@H]21,Potency,[1],inactive
same,Potency,[6],inactive
same,Potency,[5],"inconclusive: 0.187 µM [cytotoxic, full curve, poor fit]"
CC[C@H](CC[C@@H](C)[C@H]1CC[C@H]2[C@@H]3CC=C4C[C@@H](O)CC[C@]4(C)[C@@H]3CC[C@]12C)C(C)C,Potency,[1],inactive
same,Potency,[4],inactive
same,Potency,[9],inactive
same,Potency,[5],"inconclusive: 0.0743 µM [cytotoxic, full curve, poor fit]"
CCCCOc1c(C(=O)c2c(F)cc(C)cc2F)cnc2n[nH]cc12,Potency,[1],active: 4.18 µM
same,Potency,[6],active: 4.18 µM
Cc1cc(Nc2cc(N3CCN(C)CC3)nc(C=Cc3ccccc3)n2)n[nH]1,Potency,[1],"inconclusive: 76.2 µM [cytotoxic, partial curve, poor fit]"
same,Potency,[7],"inconclusive: 8.55 µM [cytotoxic, full curve, poor fit]"
same,Potency,[5],"inconclusive: 7.62 µM [cytotoxic, full curve, poor fit]"
Cc1cc(Nc2nc(N[C@@H](C)c3ccc(F)cc3)c(C#N)cc2F)n[nH]1,Potency,[1],"inconclusive: 0.59 µM [cytotoxic, full curve, poor fit]"
same,Potency,[6],active: 1.05 µM
same,Potency,[7],active: 1.87 µM
same,Potency,[5],active: 0.209 µM
CC(C)C[C@H](NC(=O)c1cc2ccccc2s1)C(=O)N1CCN(C(=O)[C@H](CO)NS(=O)(=O)c2ccc(Cl)cc2Cl)CC1,Potency,[1],"inconclusive: 29.6 µM [cytotoxic, single point]"
same,Potency,[6],"inconclusive: 29.6 µM [cytotoxic, single point]"
same,Potency,[4],"inconclusive: 10.5 µM [cytotoxic, partial curve, poor fit]"
same,Potency,[9],"inconclusive: 8.33 µM [cytotoxic, single point]"
same,Potency,[7],"inconclusive: 10.5 µM [cytotoxic, single point]"
same,Potency,[5],"inconclusive: 33.2 µM [rising, partial curve, poor fit]"
C[C@@H]1CC=CC=CC=CC=C[C@@H](O[C@@H]2O[C@H](C)[C@@H](O)[C@H](N)[C@H]2O)C[C@@H]2O[C@](O)(C[C@@H](O)C[C@@H]3O[C@@H]3C=CC(=O)O1)C[C@H](O)[C@@H]2C(=O)O,Potency,[1],"inconclusive: 9.35 µM [cytotoxic, full curve]"
same,Potency,[3],inactive
same,Potency,[9],inactive
same,Potency,[7],inactive
same,Potency,[5],"inconclusive: 16.6 µM [rising, partial curve, poor fit]"

# Rewritten bar-delimited: part of the list above.
compound | measurement | setting | value
Cc1cc(Nc2nc(N[C@@H](C)c3ccc(F)cc3)c(C#N)cc2F)n[nH]1 | Potency | [7] | active: 1.87 µM
same | Potency | [5] | active: 0.209 µM
CC(C)C[C@H](NC(=O)c1cc2ccccc2s1)C(=O)N1CCN(C(=O)[C@H](CO)NS(=O)(=O)c2ccc(Cl)cc2Cl)CC1 | Potency | [1] | inconclusive: 29.6 µM [cytotoxic, single point]
same | Potency | [6] | inconclusive: 29.6 µM [cytotoxic, single point]
same | Potency | [4] | inconclusive: 10.5 µM [cytotoxic, partial curve, poor fit]
